{"source": "patent US9168329B2", "about": "“Beta-peptides with antifungal activity” (Wisconsin Alumni Research Foundation, priority 2006, dated 2015)", "tested_on": "Candida albicans biofilms (ATCC 90028, ATCC 24433, SC5314)", "assay": "Biofilm antifungal susceptibility testing (pre-formed biofilms, XTT)", "type": "cell-based", "protocol": "The susceptibility of Candida albicans biofilms to β-peptide treatment was evaluated using procedures based on the method described by Ramage and Lopez-Ribot. (Ramage, G.; Lopez-Ribot, J. L. Methods Mol. Med. 2005, 118, 71-79). ATCC 90028, ATCC 24433, and SC5314 were grown in liquid yeast peptone dextrose (YPD) medium overnight at 30° C. The cells were washed two times with phosphate-buffered saline (PBS, pH 7.2) and resuspended in RPMI 1640 (with L-glutamine and without sodium bicarbonate, Invitrogen) buffered with 0.145 mol/L 3-(N-morpholino) propanesulfonic acid (MOPS). […]\nA solution of 0.5 g/L of 2,3-bis(2-methoxy-4-nitro-5-sulfo-phenyl)-2H-tetrazolium-5-carboxanilide (XTT, Sigma) was prepared, and 10 mM menadione (Sigma) in acetone was added to give a final menadione concentration of 1 μM. […] Following incubation, 75 μL of XTT solution was removed from each well and put into a new 96-well plate to measure the absorbance at 490 nm. The reduction of growth for each concentration of β-peptide was calculated from\n[formula] where A490^peptide is the average absorbance for wells containing a specified concentration of a β-peptide, A490^no drug is the average absorbance for wells with biofilms not treated with antifungal, and A490^XTT is the average absorbance for wells containing only XTT. […]", "note": "Some of these results come from one statement about several compounds together. Some ranges recur; such a range may be that of the whole group of compounds."}
{"smiles": "CC(C)[C@@H](CC(=O)N[C@@H](CCCCN)CC(N)=O)NC(=O)[C@H]1CCCC[C@@H]1NC(=O)C[C@H](CCCCN)NC(=O)C[C@@H](NC(=O)[C@H]1CCCC[C@@H]1NC(=O)C[C@H](CCCCN)NC(=O)C[C@@H](NC(=O)[C@H]1CCCC[C@@H]1N)C(C)C)C(C)C", "note": "[β-peptide 6, (ACHC-β^3Val-β^3Lys)3]", "values": [{"measurement": "concentration reducing biofilms by 80% compared to untreated biofilms, as multiple of planktonic MIC", "result": "1-15 times their planktonic MIC"}]}
